# Some of the results follow.
# Amino acid sequences for entries named in this document (tags omitted). A change or cut given only in a name is not applied to a line headed by its entry.
# UniProt Q9BTT4: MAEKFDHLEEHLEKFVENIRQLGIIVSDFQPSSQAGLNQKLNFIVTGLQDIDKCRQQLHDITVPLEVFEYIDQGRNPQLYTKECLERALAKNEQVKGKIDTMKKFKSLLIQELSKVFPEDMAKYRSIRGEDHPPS
# UniProt O95568: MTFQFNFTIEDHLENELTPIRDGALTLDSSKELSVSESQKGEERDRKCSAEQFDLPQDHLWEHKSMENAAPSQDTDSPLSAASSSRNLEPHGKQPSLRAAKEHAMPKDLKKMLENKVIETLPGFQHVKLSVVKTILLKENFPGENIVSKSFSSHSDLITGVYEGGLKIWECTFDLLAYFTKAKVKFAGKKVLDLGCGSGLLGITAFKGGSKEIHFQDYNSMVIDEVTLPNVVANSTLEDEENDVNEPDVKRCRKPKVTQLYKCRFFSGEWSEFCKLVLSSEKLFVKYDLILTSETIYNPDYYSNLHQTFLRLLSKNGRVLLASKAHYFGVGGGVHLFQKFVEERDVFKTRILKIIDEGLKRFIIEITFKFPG
# UniProt Q14676: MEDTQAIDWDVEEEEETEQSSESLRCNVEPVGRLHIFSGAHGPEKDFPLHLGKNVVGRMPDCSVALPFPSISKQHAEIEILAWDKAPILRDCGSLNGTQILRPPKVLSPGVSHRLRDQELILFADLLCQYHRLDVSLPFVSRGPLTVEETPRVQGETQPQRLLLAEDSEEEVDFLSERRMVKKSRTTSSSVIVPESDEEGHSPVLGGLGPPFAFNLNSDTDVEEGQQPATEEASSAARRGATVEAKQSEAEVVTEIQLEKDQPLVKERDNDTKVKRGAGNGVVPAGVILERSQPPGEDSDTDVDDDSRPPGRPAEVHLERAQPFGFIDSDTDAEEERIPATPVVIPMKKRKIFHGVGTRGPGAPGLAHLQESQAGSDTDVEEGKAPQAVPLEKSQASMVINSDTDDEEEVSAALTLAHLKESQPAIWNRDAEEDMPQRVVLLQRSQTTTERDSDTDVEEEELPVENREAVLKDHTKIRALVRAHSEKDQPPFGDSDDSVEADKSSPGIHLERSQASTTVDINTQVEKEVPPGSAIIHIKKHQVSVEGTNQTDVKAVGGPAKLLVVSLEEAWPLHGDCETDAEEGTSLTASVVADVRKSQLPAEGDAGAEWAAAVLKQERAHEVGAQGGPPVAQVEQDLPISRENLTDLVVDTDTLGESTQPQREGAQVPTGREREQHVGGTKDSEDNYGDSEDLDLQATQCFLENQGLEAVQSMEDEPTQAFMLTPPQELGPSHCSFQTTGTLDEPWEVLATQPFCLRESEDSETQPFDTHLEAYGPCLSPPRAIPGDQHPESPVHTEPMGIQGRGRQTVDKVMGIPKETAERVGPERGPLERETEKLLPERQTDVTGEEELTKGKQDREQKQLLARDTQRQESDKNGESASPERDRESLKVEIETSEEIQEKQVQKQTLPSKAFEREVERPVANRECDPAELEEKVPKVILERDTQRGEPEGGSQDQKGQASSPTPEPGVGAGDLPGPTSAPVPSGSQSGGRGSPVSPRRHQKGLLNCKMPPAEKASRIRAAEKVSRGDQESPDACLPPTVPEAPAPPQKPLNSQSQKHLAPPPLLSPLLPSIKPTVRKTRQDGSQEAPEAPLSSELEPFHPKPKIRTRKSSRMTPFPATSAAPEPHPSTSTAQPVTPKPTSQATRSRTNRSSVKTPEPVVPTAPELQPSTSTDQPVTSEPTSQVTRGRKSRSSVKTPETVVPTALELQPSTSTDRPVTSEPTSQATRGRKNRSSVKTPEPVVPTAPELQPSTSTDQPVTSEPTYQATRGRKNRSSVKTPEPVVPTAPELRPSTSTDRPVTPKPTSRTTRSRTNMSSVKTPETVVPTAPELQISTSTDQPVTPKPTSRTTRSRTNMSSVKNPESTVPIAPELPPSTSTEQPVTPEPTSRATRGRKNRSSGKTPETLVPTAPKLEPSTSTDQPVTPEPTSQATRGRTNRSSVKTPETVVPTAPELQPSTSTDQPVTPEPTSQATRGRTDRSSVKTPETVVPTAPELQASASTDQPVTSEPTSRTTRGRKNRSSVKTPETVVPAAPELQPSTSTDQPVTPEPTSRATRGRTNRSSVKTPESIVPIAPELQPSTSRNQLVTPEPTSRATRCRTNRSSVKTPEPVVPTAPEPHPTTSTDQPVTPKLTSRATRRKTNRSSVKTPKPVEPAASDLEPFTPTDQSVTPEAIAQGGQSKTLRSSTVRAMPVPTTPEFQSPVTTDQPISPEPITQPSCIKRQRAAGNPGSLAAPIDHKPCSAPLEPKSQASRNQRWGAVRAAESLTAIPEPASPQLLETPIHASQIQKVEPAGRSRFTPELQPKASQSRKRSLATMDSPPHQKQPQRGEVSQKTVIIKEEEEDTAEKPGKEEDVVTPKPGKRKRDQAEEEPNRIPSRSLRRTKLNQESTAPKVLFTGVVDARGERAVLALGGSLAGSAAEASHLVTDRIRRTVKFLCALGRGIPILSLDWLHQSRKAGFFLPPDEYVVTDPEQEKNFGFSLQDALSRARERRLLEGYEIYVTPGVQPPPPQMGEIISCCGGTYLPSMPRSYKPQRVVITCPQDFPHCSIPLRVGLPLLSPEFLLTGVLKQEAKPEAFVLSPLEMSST
# UniProt Q15528: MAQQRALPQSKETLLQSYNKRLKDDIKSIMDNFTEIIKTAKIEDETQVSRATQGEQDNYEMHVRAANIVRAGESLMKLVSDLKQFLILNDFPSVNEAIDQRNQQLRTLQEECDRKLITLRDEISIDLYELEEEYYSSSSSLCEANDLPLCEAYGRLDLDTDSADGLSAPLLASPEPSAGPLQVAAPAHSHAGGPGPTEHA
# UniProt Q9Y6X3: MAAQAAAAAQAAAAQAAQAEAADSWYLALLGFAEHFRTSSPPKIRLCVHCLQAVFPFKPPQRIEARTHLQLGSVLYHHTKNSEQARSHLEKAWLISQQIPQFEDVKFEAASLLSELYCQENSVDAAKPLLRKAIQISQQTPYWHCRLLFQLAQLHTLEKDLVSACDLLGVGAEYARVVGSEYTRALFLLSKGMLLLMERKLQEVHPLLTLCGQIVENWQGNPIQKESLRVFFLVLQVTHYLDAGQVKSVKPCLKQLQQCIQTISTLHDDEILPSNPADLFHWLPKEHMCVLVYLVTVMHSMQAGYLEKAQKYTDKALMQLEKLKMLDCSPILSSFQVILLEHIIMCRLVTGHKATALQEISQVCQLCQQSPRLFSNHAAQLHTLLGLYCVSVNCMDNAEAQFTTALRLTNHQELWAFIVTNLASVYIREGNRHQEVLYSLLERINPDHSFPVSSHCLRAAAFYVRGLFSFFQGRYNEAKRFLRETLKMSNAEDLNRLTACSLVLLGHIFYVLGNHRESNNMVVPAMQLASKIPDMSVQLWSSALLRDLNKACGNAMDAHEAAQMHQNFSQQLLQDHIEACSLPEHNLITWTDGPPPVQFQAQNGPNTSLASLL
# UniProt Q15648, whole entry, looked up: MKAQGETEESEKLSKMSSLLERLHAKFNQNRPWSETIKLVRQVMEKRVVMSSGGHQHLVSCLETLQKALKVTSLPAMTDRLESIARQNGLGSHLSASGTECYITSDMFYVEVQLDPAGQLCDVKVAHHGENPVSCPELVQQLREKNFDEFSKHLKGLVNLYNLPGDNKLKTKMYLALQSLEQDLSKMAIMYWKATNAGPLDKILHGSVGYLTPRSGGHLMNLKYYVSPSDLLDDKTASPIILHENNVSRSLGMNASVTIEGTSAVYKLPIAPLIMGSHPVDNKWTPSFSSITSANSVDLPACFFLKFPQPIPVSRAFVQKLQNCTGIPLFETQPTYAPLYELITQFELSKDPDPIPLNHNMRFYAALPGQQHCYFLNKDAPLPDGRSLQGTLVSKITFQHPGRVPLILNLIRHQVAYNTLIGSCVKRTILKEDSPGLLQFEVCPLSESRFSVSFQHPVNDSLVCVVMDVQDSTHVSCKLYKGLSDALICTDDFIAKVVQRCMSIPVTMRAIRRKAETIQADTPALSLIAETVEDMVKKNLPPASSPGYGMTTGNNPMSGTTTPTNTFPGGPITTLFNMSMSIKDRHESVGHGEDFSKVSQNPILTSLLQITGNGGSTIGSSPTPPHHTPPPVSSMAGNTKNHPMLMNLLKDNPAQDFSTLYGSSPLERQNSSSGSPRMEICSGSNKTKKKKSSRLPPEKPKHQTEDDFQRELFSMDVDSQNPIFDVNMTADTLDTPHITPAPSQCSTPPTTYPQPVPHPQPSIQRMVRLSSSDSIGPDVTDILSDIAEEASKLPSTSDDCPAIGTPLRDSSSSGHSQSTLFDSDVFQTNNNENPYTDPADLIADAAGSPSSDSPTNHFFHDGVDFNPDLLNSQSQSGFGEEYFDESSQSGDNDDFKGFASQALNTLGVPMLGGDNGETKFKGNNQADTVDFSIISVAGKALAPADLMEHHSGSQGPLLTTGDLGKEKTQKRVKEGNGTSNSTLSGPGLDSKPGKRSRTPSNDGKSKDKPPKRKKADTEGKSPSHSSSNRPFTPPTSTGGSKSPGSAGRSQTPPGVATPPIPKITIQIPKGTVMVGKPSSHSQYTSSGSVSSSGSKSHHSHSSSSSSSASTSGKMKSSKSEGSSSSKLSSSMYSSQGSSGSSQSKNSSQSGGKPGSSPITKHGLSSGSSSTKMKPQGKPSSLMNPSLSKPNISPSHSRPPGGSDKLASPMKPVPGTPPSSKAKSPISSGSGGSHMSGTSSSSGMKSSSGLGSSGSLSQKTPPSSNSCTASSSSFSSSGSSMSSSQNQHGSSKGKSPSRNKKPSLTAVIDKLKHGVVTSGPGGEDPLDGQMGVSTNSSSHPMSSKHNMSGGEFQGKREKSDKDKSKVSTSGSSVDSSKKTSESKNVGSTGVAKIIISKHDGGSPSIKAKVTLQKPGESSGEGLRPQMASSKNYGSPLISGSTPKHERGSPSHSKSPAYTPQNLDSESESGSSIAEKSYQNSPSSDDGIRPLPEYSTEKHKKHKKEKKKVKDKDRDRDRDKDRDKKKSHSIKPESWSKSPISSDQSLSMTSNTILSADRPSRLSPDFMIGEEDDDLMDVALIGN
# UniProt Q9ULK4: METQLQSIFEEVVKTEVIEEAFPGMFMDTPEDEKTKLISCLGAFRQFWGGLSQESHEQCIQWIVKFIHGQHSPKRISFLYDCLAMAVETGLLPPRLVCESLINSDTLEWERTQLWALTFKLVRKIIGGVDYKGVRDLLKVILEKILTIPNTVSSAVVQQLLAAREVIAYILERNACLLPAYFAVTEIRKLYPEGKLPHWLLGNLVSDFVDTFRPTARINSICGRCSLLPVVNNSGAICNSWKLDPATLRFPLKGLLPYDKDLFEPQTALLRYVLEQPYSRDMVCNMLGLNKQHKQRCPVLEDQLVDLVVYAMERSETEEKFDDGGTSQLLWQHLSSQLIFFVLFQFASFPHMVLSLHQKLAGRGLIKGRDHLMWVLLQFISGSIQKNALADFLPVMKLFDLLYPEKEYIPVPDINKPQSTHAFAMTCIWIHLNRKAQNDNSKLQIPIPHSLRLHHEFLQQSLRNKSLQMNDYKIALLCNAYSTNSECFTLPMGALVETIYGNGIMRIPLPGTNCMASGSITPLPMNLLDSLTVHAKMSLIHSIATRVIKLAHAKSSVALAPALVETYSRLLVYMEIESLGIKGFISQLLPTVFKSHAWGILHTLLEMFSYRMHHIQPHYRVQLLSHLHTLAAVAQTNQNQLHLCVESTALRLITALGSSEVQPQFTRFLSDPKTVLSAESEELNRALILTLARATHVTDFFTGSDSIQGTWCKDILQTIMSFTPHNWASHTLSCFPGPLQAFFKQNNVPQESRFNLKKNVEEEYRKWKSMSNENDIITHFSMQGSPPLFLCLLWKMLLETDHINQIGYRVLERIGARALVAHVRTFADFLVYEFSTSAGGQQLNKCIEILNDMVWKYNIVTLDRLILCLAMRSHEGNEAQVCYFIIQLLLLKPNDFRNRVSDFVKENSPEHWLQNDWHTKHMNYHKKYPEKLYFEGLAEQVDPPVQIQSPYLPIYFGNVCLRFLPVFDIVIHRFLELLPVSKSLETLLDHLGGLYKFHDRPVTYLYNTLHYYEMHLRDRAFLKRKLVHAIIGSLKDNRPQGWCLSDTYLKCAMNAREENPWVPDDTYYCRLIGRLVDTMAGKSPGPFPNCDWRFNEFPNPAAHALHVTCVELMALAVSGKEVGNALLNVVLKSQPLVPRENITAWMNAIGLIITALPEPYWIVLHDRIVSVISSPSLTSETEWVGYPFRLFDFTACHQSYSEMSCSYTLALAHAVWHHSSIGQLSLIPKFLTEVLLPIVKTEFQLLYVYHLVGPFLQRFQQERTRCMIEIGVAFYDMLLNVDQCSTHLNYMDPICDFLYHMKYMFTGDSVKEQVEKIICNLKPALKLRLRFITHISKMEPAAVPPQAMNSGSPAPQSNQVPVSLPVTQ
# UniProt Q96PE7: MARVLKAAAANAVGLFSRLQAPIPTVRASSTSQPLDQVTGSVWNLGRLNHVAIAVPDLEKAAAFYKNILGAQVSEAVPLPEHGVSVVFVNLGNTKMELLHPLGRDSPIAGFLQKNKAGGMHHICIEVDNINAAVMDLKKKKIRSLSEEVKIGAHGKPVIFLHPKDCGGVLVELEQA
# Compound: C1=CC=C(C=C1)[C@H](COC2=CC3=C(C=C2)NC(=O)N3)NC(=O)C4=CC=CN(C4=O)CC5=CC(=C(C=C5)F)F
# Assay: log2 fold change, soluble protein after heating vs DMSO (PISA); higher = thermal stabilisation; K562 lysate, 10 uM; active = over 0.2 and 3.5 SD of the protein, either way, in both replicates (recomputed)
# Method in brief: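 Soluble protein was defined as the supernatant remaining after 21,000xg for 90 min, following pooling of heated aliquots and adjustment to 0.5% NP-40 at 4°C. Before that, crude K562 extract at 1 mg/mL protein in PBS pH 7.4 with 1 mM MgCl2 was treated with 10 μM compound for 30 min and heated for 3 min across 48°C-58°C. Quantification used TMTpro 16plex LC-MS/MS with channel sums equalised, and values are log-two fold changes in thermal stability relative to solvent controls from duplicates.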
row,Target,log2 fold change
1,METTL7A (UniProt Q9H8H3),inactive: 0.069
2,MBLAC2 (UniProt Q68D91),inactive: -0.011
3,MED10 (UniProt Q9BTT4),inactive: 0.038
4,MED18 (UniProt Q9BUE0),inactive: 0.035
5,MEGF9 (UniProt Q9H1U4),inactive: -0.204
6,METTL18 (UniProt O95568),inactive: 0.005
7,MDC1 (UniProt Q14676),inactive: 0.01
8,METTL26 (UniProt Q96S19),inactive: -0.046
9,MELTF (UniProt P08582),inactive: -0.091
10,MCRS1 isoform 2 (UniProt Q96EZ8),inactive: 0.051
11,MEF2A isoform 2 (UniProt Q02078),inactive: 0.09
12,MED13 (UniProt Q9UHV7),inactive: -0.021
13,MDM2 isoform 11 (UniProt Q00987),inactive: 0.109
14,MBD2 (UniProt Q9UBB5),inactive: 0.042
15,ME2 (UniProt P23368),inactive: -0.011
16,MED7 (UniProt O43513),inactive: -0.147
17,MFSD8 (UniProt Q8NHS3),inactive: 0.015
18,MED30 (UniProt Q96HR3),inactive: 0.061
19,METTL6 (UniProt Q8TCB7),inactive: 0.221

row,Target,log2 fold change
1,MCM3 isoform 2 (UniProt P25205),inactive: -0.006
2,MEMO1 (UniProt Q9Y316),inactive: 0.029
3,MED12 isoform 2 (UniProt Q93074),inactive: 0.013
4,METTL16 (UniProt Q86W50),inactive: 0.031
5,MED22 isoform 2 (UniProt Q15528),inactive: 0.08
6,MAU2 (UniProt Q9Y6X3),inactive: 0.083
7,MEPCE (UniProt Q7L2J0),inactive: 0.027
8,MED31 (UniProt Q9Y3C7),inactive: 0.027
9,MCM4 (UniProt P33991),inactive: 0.027
10,MED24 (UniProt O75448),inactive: -0.024
11,MECR (UniProt Q9BV79),inactive: -0.001
12,MED26 (UniProt O95402),inactive: -0.059
13,MBTPS1 (UniProt Q14703),active: -0.317
14,MED16 (UniProt Q9Y2X0),inactive: 0.019
15,MED1 (UniProt Q15648),inactive: 0.002
16,MED23 (UniProt Q9ULK4),inactive: -0.013
17,MBNL1 (UniProt C9JP00),inactive: -0.073
18,MCEE (UniProt Q96PE7),inactive: 0.055
19,MED20 (UniProt Q9H944),inactive: -0.013

# Individual results from above:
# Entry for ME2 (UniProt P23368) under log2 fold change: inactive: -0.011
# Entry for MEPCE (UniProt Q7L2J0) under log2 fold change: inactive: 0.027
# Entry for MAU2 (UniProt Q9Y6X3) under log2 fold change: inactive: 0.083

# From the supplement of paper PMC10849652
